Experimental findings from paper PMC6331526 are described below.

These are yes or no findings as the source states them, for the method shown. For some assays here: Binding seen in cells or lysates may run through a third protein. Some results given as binding are weak or reduced against the parent protein; the word gives no strength. Sequences can lack the tags named with a protein.

The target of assay [1] is T1, NTCP(221-240) peptide (human) (UniProt Q14973).
T1 sequence (peptide, biotin (position not stated)): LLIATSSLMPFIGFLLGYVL
Briefly: SPR; NTCP peptide-immobilized chip; nominally dose-dependent responses (Figure S4); conditions not shown; both purified.

Assay [2] concerns the target T2, NTCP(271-290) peptide (human) (UniProt Q14973).
T2 sequence (peptide, biotin (position not stated)): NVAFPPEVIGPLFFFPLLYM
The description is as above.

Assay [3] has as its target T1, NTCP(221-240) peptide (human). The assay can be described thus: pull-down; biotinylated peptides immobilized on streptavidin-agarose beads, incubated with recombinant His-NTCP at 4°C for 4 h; coprecipitated His-NTCP detected by immunoblot with anti-His antibody; both purified.
Assay [4] addresses T2, NTCP(271-290) peptide (human). The description is as above.
Assay [5] deals with T3, NTCP, myc-tagged (myc-NTCP) and HA-tagged (HA-NTCP) copies co-expressed in HepG2 cells (human) (UniProt Q14973).
T3 sequence: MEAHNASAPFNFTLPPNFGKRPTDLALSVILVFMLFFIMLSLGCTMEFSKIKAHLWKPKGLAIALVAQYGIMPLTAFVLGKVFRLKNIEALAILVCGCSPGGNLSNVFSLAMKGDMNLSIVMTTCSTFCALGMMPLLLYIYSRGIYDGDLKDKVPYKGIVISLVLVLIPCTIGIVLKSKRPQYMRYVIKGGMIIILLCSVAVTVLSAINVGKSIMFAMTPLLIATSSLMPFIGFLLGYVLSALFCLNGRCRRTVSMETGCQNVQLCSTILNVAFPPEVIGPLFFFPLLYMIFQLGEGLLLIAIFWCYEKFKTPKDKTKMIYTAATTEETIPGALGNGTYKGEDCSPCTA
Briefly: proximity ligation; HepG2 cells transiently expressing both myc-NTCP and HA-NTCP, treated with preS1 probe for 30 min at 4°C; anti-myc and anti-HA antibodies, Duolink PLA.

Assay [6] has as its target T3, NTCP, myc-tagged (myc-NTCP) and HA-tagged (HA-NTCP) copies co-expressed in HepG2 cells (human). Briefly: proximity ligation; HepG2 cells transiently expressing both myc-NTCP and HA-NTCP, without preS1 probe; anti-myc and anti-HA antibodies, Duolink PLA.
Assay [7] shares this target. The assay can be described thus: proximity ligation; HepG2 cells overexpressing myc-NTCP and HA-NTCP, with preS1, with an excess amount of NTCP fragment peptide added as decoy; loss of myc-HA PLA signal; only the binder purified.

B1: Recombinant full-length NTCP protein tagged with His (His-NTCP) (protein, UniProt Q14973 1-349)
chain: MEAHNASAPFNFTLPPNFGKRPTDLALSVILVFMLFFIMLSLGCTMEFSKIKAHLWKPKGLAIALVAQYGIMPLTAFVLGKVFRLKNIEALAILVCGCSPGGNLSNVFSLAMKGDMNLSIVMTTCSTFCALGMMPLLLYIYSRGIYDGDLKDKVPYKGIVISLVLVLIPCTIGIVLKSKRPQYMRYVIKGGMIIILLCSVAVTVLSAINVGKSIMFAMTPLLIATSSLMPFIGFLLGYVLSALFCLNGRCRRTVSMETGCQNVQLCSTILNVAFPPEVIGPLFFFPLLYMIFQLGEGLLLIAIFWCYEKFKTPKDKTKMIYTAATTEETIPGALGNGTYKGEDCSPCTA
For the molecule B1, the binding entry in assay [1], in assay [2], in assay [3] and in assay [4] was “binds” throughout.

B2: NTCP, myc-tagged (myc-NTCP) and HA-tagged (HA-NTCP) copies co-expressed in HepG2 cells (receptor, UniProt Q14973 1-349)
chain: MEAHNASAPFNFTLPPNFGKRPTDLALSVILVFMLFFIMLSLGCTMEFSKIKAHLWKPKGLAIALVAQYGIMPLTAFVLGKVFRLKNIEALAILVCGCSPGGNLSNVFSLAMKGDMNLSIVMTTCSTFCALGMMPLLLYIYSRGIYDGDLKDKVPYKGIVISLVLVLIPCTIGIVLKSKRPQYMRYVIKGGMIIILLCSVAVTVLSAINVGKSIMFAMTPLLIATSSLMPFIGFLLGYVLSALFCLNGRCRRTVSMETGCQNVQLCSTILNVAFPPEVIGPLFFFPLLYMIFQLGEGLLLIAIFWCYEKFKTPKDKTKMIYTAATTEETIPGALGNGTYKGEDCSPCTA
In the case of B2, the binding result is listed as “binds” in assay [5] and “binds weakly” in assay [6].

B3: NTCP(271-290) peptide (peptide, UniProt Q14973 271-290)
peptide: NVAFPPEVIGPLFFFPLLYM
modifications: biotin (position not given)
For the molecule B3, in assay [7], the binding entry was “binds”.

B4: NTCP(221-240) peptide (peptide, UniProt Q14973 221-240)
peptide: LLIATSSLMPFIGFLLGYVL
modifications: biotin (position not given)
In the case of B4, the binding result in assay [7] was “binds”.
